Data as given in PubChem BioAssay AID686938 (Drosophila RNAi Screening Center, 2013)
The deposit covers about 23,000 reagents; this is a random part of those with a known target gene and a result. In the full data, 75 (0.33%) are marked active. 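Raw plate signals without normalisation; calls rest on plate z-scores that were not deposited; ratio present for only 364 wells.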 A number with no mark means an inactive call. The record does not give: the dose of the treatment.

Purpose: 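Looking for CRAC channel components and the factors controlling them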 (primary screen)
Cell system: Drosophila S2R+ cells
Reagents: long dsRNA against Drosophila genes, about 0.25 µg dsRNA per well, roughly 10,000 cells
Duration: 5 days of knock-down before the calcium assay
Challenge: thapsigargin (SERCA pump blocker) to empty calcium stores; entry signal taken 4 min after adding it
Detection: 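Duplicate raw fluo-4 intensities per well from a plate reader, at rest and four minutes after thapsigargin emptied calcium stores; entry-to-rest ratio filled for only some wells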
Reading the numbers: calcium entry signal: higher = stronger calcium signal after store depletion; resting calcium signal: higher = higher resting calcium signal
Active means: 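Called when the plate z-score of the entry-to-rest ratio, mean of duplicates, falls below −3; wells with low overall dye signal (Fmax z below −2) or more than five off-targets excluded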
Meaning of the calls: active = strongly reduced calcium entry; inactive = no strong reduction

After knock-down of Hmgcr (HMG Coenzyme A reductase) [DRSC16704], the screen gave calcium entry signal, replicate 1 (fluorescence units) = 3.25e7 (active); calcium entry signal, replicate 2 (fluorescence units) = 2.09e7; resting calcium signal, replicate 1 (fluorescence units) = 2.44e7; resting calcium signal, replicate 2 (fluorescence units) = 1.35e7.
CG9547 [DRSC03260] gave calcium entry signal, replicate 1 (fluorescence units) = 4.61e7; resting calcium signal, replicate 1 (fluorescence units) = 2.22e7.
Knock-down of CG31913 [DRSC00892] came out at: calcium entry signal, replicate 1 (fluorescence units) = 2.50e7; calcium entry signal, replicate 2 (fluorescence units) = 3.63e7; resting calcium signal, replicate 1 (fluorescence units) = 1.33e7; resting calcium signal, replicate 2 (fluorescence units) = 1.65e7.
Knock-down of CG12831 [DRSC06179] resulted in: calcium entry signal, replicate 1 (fluorescence units) = 5.28e7; calcium entry signal, replicate 2 (fluorescence units) = 4.07e7; resting calcium signal, replicate 1 (fluorescence units) = 2.29e7; resting calcium signal, replicate 2 (fluorescence units) = 1.62e7.
With knock-down of Tsp42Ef (Tetraspanin 42Ef) [DRSC06191], the record shows calcium entry signal, replicate 1 (fluorescence units) = 4.28e7; calcium entry signal, replicate 2 (fluorescence units) = 3.97e7; resting calcium signal, replicate 1 (fluorescence units) = 1.85e7; resting calcium signal, replicate 2 (fluorescence units) = 1.70e7.
Against Ccn [DRSC09504] the deposit lists calcium entry signal, replicate 1 (fluorescence units) = 4.42e7; calcium entry signal, replicate 2 (fluorescence units) = 3.81e7; resting calcium signal, replicate 1 (fluorescence units) = 2.00e7; resting calcium signal, replicate 2 (fluorescence units) = 1.78e7.
For Ccn [DRSC09506], the entry reads calcium entry signal, replicate 1 (fluorescence units) = 3.40e7; calcium entry signal, replicate 2 (fluorescence units) = 3.95e7; resting calcium signal, replicate 1 (fluorescence units) = 1.99e7; resting calcium signal, replicate 2 (fluorescence units) = 1.92e7.
Against Ccn [DRSC10062] the deposit lists calcium entry signal, replicate 1 (fluorescence units) = 3.73e7; calcium entry signal, replicate 2 (fluorescence units) = 4.64e7; resting calcium signal, replicate 1 (fluorescence units) = 1.82e7; resting calcium signal, replicate 2 (fluorescence units) = 3.11e7.
Against Ccn [DRSC10063], the values are calcium entry signal, replicate 1 (fluorescence units) = 3.70e7; calcium entry signal, replicate 2 (fluorescence units) = 5.07e7; resting calcium signal, replicate 1 (fluorescence units) = 1.81e7; resting calcium signal, replicate 2 (fluorescence units) = 1.77e7.

Limited to “calcium entry signal, replicate 2 (fluorescence units)”, for 2 of the entries above:
Ccn [DRSC09504]: 3.81e7
Ccn [DRSC09506]: 3.95e7

The listing continues:
Depletion of zormin [DRSC07969] gave: calcium entry signal, replicate 1 (fluorescence units) = 3.67e7; calcium entry signal, replicate 2 (fluorescence units) = 3.59e7; resting calcium signal, replicate 1 (fluorescence units) = 1.78e7; resting calcium signal, replicate 2 (fluorescence units) = 1.62e7.
After knock-down of zormin [DRSC08210], the record shows calcium entry signal, replicate 1 (fluorescence units) = 3.04e7; calcium entry signal, replicate 2 (fluorescence units) = 3.48e7; resting calcium signal, replicate 1 (fluorescence units) = 1.47e7; resting calcium signal, replicate 2 (fluorescence units) = 1.63e7.
zormin [DRSC08212] showed calcium entry signal, replicate 1 (fluorescence units) = 2.96e7; calcium entry signal, replicate 2 (fluorescence units) = 3.34e7; resting calcium signal, replicate 1 (fluorescence units) = 1.54e7; resting calcium signal, replicate 2 (fluorescence units) = 1.56e7.
Knock-down of zormin [DRSC08213] resulted in: calcium entry signal, replicate 1 (fluorescence units) = 3.23e7; calcium entry signal, replicate 2 (fluorescence units) = 3.74e7; resting calcium signal, replicate 1 (fluorescence units) = 1.54e7; resting calcium signal, replicate 2 (fluorescence units) = 1.82e7.
For zormin [DRSC08297], the entry reads calcium entry signal, replicate 1 (fluorescence units) = 3.15e7; calcium entry signal, replicate 2 (fluorescence units) = 3.56e7; resting calcium signal, replicate 1 (fluorescence units) = 1.63e7; resting calcium signal, replicate 2 (fluorescence units) = 1.76e7.
Knock-down of zormin [DRSC08571] resulted in: calcium entry signal, replicate 1 (fluorescence units) = 4.58e7; calcium entry signal, replicate 2 (fluorescence units) = 3.68e7; resting calcium signal, replicate 1 (fluorescence units) = 2.13e7; resting calcium signal, replicate 2 (fluorescence units) = 1.92e7.
zormin [DRSC22483] scored calcium entry signal, replicate 1 (fluorescence units) = 3.67e7; calcium entry signal, replicate 2 (fluorescence units) = 3.75e7; resting calcium signal, replicate 1 (fluorescence units) = 2.04e7; resting calcium signal, replicate 2 (fluorescence units) = 1.72e7.
